# Assay results: paper PMC2048977
# Protein sequences, listed by entry. Tags and fused reporters are not part of them. Chains listed by the source or under a name are the forms on record and can include a tag or linker. Residues count along the entry.
# GST tagged C-terminal region of CBP (amino acids 1680 to 2441) (P45481, residues 1680-2441): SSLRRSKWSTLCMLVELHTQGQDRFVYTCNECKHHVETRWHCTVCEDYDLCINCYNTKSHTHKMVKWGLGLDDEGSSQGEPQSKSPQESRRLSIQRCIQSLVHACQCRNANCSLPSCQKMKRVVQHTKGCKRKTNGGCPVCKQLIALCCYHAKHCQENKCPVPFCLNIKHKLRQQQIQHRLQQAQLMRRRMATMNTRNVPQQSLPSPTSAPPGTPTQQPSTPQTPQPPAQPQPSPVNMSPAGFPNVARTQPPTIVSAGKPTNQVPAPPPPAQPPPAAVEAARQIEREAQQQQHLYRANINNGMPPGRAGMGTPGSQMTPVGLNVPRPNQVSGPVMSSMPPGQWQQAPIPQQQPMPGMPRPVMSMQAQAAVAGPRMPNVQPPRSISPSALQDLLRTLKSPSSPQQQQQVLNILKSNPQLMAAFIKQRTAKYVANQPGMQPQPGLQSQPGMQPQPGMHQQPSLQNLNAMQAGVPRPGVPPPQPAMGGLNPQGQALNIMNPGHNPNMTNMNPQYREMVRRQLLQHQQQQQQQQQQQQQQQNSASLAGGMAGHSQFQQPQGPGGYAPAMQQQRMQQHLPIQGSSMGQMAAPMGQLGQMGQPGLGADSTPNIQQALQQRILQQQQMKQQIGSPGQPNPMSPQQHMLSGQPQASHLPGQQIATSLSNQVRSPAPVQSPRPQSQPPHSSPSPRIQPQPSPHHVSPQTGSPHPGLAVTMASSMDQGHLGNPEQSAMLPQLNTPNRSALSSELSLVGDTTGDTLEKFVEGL
# 35S-methionine labeled CH3 domain peptides of CBP (amino acids 1680–1892) (P45481, residues 1680-1892): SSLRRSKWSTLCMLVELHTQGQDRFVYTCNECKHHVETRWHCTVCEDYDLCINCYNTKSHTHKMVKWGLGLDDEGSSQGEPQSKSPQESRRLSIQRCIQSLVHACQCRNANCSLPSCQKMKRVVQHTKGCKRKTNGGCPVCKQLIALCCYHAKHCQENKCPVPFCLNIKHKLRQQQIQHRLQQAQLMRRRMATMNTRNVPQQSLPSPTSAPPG
# UniProt Q92793: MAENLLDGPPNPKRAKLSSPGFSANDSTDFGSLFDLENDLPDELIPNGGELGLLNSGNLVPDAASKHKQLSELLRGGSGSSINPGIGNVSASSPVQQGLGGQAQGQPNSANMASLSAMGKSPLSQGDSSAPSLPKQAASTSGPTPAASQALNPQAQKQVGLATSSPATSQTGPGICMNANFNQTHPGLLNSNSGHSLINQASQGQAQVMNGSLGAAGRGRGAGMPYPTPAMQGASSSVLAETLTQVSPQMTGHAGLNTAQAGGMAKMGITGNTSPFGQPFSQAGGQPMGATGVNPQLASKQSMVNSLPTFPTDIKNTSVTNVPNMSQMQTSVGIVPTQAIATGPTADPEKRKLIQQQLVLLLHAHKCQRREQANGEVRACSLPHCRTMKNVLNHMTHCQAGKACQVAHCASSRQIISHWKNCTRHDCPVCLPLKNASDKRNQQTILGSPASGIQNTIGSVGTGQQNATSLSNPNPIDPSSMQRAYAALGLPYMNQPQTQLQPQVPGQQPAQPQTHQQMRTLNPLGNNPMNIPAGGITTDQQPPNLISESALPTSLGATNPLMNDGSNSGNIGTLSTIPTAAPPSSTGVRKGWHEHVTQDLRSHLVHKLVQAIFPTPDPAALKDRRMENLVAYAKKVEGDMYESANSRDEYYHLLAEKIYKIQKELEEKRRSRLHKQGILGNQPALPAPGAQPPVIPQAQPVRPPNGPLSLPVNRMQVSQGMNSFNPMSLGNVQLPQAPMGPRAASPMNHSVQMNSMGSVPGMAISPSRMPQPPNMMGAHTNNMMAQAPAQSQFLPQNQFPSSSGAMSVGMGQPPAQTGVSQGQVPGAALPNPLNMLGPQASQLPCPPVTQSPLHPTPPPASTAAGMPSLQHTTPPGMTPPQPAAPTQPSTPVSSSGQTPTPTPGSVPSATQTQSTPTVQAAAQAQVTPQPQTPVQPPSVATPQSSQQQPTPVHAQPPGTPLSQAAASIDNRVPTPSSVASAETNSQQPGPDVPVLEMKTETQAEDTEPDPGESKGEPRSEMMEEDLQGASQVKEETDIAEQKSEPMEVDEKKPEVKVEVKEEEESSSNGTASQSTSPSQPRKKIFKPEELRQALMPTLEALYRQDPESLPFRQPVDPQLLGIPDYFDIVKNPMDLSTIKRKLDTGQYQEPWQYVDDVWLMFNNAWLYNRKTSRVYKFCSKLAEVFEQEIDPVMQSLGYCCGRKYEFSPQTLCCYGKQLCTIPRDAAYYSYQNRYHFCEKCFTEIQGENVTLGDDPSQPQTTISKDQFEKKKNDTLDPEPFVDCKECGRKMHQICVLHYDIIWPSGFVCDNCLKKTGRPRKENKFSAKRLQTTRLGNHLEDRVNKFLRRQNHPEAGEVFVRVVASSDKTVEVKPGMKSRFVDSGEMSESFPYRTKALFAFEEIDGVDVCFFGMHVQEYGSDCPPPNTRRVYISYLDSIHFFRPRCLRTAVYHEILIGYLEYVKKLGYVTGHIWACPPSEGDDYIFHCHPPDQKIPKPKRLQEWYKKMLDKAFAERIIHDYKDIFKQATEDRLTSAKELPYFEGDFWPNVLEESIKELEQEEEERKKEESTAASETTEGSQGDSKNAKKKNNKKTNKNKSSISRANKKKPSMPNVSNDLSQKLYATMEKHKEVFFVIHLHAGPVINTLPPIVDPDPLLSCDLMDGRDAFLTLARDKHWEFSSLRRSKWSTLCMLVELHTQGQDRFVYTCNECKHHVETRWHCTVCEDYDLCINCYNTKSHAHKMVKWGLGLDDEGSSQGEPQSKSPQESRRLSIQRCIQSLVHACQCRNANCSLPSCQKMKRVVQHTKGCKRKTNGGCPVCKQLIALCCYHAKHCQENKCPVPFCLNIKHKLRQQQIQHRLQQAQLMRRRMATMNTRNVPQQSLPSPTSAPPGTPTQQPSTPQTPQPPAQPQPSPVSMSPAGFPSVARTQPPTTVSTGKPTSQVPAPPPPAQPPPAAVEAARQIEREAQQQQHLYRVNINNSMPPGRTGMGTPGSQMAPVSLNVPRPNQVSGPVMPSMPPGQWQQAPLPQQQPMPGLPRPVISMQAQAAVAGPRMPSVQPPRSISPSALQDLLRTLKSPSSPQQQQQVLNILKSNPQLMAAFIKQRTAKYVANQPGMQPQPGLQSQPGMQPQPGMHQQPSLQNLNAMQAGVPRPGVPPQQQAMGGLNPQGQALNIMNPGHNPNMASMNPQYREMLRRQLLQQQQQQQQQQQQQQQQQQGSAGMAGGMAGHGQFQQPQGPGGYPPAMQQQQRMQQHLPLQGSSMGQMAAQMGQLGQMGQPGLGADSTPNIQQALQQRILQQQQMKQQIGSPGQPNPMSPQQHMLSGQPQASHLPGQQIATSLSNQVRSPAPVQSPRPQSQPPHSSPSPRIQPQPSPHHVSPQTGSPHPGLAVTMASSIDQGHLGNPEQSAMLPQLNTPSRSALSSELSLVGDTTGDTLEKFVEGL
# UniProt Q09472: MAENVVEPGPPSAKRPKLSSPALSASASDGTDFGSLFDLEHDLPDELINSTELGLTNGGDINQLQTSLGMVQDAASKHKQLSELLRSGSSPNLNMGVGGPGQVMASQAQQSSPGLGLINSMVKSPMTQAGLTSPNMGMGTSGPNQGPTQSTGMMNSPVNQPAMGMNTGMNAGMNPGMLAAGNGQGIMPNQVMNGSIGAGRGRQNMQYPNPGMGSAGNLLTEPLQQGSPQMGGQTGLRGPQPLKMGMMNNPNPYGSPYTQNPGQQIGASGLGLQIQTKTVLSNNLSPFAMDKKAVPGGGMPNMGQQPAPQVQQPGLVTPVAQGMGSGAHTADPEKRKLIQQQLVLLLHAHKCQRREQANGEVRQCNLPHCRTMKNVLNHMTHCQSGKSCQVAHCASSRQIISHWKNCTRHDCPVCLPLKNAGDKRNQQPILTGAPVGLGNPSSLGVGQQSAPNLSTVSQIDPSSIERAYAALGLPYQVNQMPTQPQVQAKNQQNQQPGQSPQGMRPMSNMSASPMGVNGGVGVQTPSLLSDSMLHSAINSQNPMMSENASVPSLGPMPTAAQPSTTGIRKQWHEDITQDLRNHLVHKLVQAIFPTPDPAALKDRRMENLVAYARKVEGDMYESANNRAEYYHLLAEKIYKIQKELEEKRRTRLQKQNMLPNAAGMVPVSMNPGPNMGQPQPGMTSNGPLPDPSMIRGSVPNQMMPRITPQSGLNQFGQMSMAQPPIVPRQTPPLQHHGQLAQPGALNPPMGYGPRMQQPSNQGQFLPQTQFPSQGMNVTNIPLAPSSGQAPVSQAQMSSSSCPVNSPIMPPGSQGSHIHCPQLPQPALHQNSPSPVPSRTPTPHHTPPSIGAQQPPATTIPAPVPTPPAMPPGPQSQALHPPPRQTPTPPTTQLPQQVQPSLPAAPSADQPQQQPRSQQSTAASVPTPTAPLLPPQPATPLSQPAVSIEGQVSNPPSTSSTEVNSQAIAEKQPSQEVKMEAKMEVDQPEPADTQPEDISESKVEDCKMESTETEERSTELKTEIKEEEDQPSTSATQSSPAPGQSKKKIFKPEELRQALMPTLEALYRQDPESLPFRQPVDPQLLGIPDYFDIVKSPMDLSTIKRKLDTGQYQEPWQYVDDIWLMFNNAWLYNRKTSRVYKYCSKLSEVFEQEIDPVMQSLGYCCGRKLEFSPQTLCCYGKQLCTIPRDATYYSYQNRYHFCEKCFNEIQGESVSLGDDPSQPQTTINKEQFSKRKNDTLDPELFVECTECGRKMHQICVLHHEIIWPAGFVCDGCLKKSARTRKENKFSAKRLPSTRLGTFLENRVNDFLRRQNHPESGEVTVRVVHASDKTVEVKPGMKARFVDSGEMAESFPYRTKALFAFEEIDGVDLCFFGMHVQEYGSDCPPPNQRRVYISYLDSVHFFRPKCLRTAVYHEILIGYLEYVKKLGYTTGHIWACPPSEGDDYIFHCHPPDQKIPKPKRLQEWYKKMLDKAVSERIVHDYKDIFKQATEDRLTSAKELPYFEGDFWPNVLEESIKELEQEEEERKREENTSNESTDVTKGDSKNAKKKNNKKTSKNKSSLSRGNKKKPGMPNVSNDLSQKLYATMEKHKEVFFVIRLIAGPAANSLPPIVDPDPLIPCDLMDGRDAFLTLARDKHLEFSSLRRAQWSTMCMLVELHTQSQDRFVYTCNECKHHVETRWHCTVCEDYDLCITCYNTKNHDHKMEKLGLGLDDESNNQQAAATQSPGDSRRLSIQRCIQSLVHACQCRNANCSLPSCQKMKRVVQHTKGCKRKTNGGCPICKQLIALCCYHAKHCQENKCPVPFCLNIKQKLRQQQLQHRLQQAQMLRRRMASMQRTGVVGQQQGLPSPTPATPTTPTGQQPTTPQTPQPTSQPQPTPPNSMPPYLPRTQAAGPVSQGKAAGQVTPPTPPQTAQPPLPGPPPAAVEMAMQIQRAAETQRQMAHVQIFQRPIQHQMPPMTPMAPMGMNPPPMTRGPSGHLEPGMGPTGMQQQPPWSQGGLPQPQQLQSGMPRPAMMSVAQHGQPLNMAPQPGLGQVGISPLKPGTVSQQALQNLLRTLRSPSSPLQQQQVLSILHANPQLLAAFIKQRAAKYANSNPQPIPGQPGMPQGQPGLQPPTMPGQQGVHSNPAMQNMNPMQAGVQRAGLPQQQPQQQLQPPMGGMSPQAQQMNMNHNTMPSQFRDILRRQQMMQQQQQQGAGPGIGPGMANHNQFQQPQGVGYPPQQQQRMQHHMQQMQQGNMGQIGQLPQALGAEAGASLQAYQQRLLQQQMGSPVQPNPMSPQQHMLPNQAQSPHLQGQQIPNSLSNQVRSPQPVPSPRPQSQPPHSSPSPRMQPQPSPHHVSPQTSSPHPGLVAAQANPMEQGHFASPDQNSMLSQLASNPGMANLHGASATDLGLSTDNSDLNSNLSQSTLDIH
# Results are given in words; binding and its absence hold for the method and conditions named. Binding seen in cells or lysates may run through a third protein. Some entries that bind do so weakly or less than the wild type. For part of these data: Tags and fused reporters may be left off the sequences shown.
# B1: Xpress-tagged MT2 1–907 del 193–346/486/764 (domain or fragment, UniProt Q92794)
# chain: MVKLANPLYTEWILEAIKKVKKQKQRPSEERICNAVSSSHGLDRKTVLEQLELSVKDGTILKVSNKGLNSYKDPDNPGRIALPKPRNHGKLDNKQNVDWNKLIKRAVEGLAESGGSTLKSIERFLKGQKDVSALFGGSAASGFHQQLRLAIKRAIGHGRLLKDGPLYRLNTKATNVDGKESCESLSCLPPVSTVSKGPFSKVRTGPGRGRKRKITLSSQSASSSSEEGYLERIDGLDFCRDSNVSLKFNKKTKGLIDGLTKFFTPSPDGRKARGEVVDYSEQYRIRKRGNRKSSTSDWPTDNQDGWDGKQENEERLFGSQEIMTEKDMELFRPVDVDPECLRWTPVIVSNSVVSEEEEEEAEEGENEEPQCQERELEISVGKSVSHENKEQDSYSVESEKKPEVMAPVSSTRLSKQVLPHDSLPANSQPSRRGRWGRKNRKTQERFGDKDSKLLLEETSSAPQEQYGECGEKSE
# How the values were obtained:
# [1] = molecular target: GST tagged C-terminal region of CBP (amino acids 1680 to 2441) (UniProt P45481); experiment: pull-down; 5 μl in vitro-translated 35S-Met-labelled protein with 3–5 μg GST fusion protein on Sepharose 4B beads; 50 mM Tris-HCl pH 8.0, 100 mM NaCl, 0.3 mM DTT, 10 mM MgCl2, 10% glycerol, 0.1% NP40; 4°C, 1 hour; five washes; autoradiography; only the target purified
# [2] = molecular target: GST-CBP peptides (amino acids 1680–1892), CH3 domain of CBP (UniProt P45481); experiment: as above
# [3] = molecular target: His-tagged MOZ (monocytic leukemia zinc finger protein) (human) (UniProt Q92794); experiment: co-IP; HEK293 transiently transfected with His-tagged MOZ, MOZ-TIF2 or vector alone, lysed after 36 hours; anti-His-tag antibody conjugated to agarose, 4°C overnight; washed with PBS 0.5 % NP-40; western with anti-CBP antibody
# [4] = molecular target: His-tagged MOZ (monocytic leukemia zinc finger protein) (human) (UniProt Q92794); experiment: co-IP; data not shown; p300 co-precipitated by wild type MOZ and MOZ-TIF2
# [5] = molecular target: GST-MOZ peptide containing the MYST domain (amino acids 523–759) (human) (UniProt Q92794); experiment: pull-down; 5 μl in vitro-translated 35S-Met-labelled protein with 3–5 μg GST fusion protein on Sepharose 4B beads; 50 mM Tris-HCl pH 8.0, 100 mM NaCl, 0.3 mM DTT, 10 mM MgCl2, 10% glycerol, 0.1% NP40; 4°C, 1 hour; five washes; autoradiography; only the target purified
# [6] = molecular target: GST tagged C-terminal region of CBP (amino acids 1680 to 2441) (UniProt P45481); experiment: pull-down; whole cell extract of HEK 293 cells expressing Xpress-tagged MOZ-TIF2 fragments (36 hours) incubated with GST-tagged C terminal of CBP on Glutathione-Sepharose beads; detected with anti-Xpress antibody; only the target purified
molecule,measurement,setting,value
"MOZ-TIF2 1–759 (MOZ portion of MOZ-TIF2), 35S-methionine labelled (from UniProt Q92794 1-759) (domain or fragment)",binding,[1],binds
same,binding,[2],binds
"CBP (cAMP-response element binding protein-binding protein), endogenous in HEK293 (from UniProt Q92793 1-2442)",binding,[3],binds
"p300, a CBP-like histone acetylase (from UniProt Q09472 1-2414)",binding,[4],binds
35S-methionine labeled CH3 domain peptides of CBP (amino acids 1680–1892) (from UniProt P45481 1680-1892) (domain or fragment),binding,[5],binds
B1,binding,[6],binds
